Results as given in PubChem BioAssay AID540276 (National Center for Advancing Translational Sciences (NCATS), 2011).
Several values for one entry are separate records, joined by “and”; a condition that tells them apart may be missing. Identical values can stand only once. The whole screen tested about 300,000 compounds, of which about 5,400 (1.8%) were called active. The inconclusive results got no clear call from the source; some entries with a clear call stand among them for comparison. The call rests on the fitted dose curve; tested in HEK293 cells. A potency beside an inconclusive call is a rough fit, not a confirmed value.
On the % scale 0 is the no-effect control and ±100 the full control effect; potency means the concentration at half of the fitted maximal effect.

Assay: qHTS for inhibitors of binding or entry into cells for Marburg Virus
Details: Marburg virus pseudotyped entry inhibition, cell reporter; activity change, negative = inhibition: at 37.8 µM (top of the series) unless noted
For Cc1ccc(Oc2nc3ccccn3c(=O)c2/C=C(\C#N)C(=O)Nc2c(C)n(C)n(-c3ccccc3)c2=O)cc1, the “activity change, negative = inhibition” value was inactive: -27.1%. With Cc1ccc(CSc2nc3ccc(NC(=O)C(C)C)cc3s2)cc1 the Potency was inconclusive: 31.6 µM [inhibitor, partial curve, poor fit]. With CCNC(=S)N/N=C/c1cn(Cc2ccccc2F)c2ccccc12 the Potency was inconclusive: 35.5 µM [inhibitor, single point]. With CCc1nn2c(=O)c(S(=O)(=O)Nc3ccc(OC)c(Cl)c3)c(C)nc2s1 the Potency was inconclusive: 2.82 µM [inhibitor, full curve]. In the case of CC(C(=O)NCc1ccco1)n1cc(C(=O)c2ccco2)c2ccccc21 (stereo not given), the “activity change, negative = inhibition” value is reported as inactive: -2.56%. In the case of CC1(C)C2CCC1(CS(=O)(=O)N1CCCC1C(=O)O)C(=O)C2 (stereo not given), the Potency is reported as inconclusive: 2.51 µM [activator, partial curve, poor fit]. With OCCNC(=S)NCCc1ccccc1 the “activity change, negative = inhibition” value was inactive: 2.67%. In the case of O=c1oc(-c2cccs2)nc2ccccc12, the Potency is reported as inconclusive: 0.116 µM [activator, full curve, poor fit]. With Cc1cc(-n2c(C)cc(C(=O)CSc3nnc4sc5ccccc5n34)c2C)no1 the “activity change, negative = inhibition” value was inactive: -8.32%. For O=C(O)C1C(c2ccccc2)C(C(=O)OCCCO)C1c1ccccc1 (stereo not given), the “activity change, negative = inhibition” value was inactive: 20.1%. With O=C(Nc1ccc(N2CCOCC2)cc1)c1ccc([N+](=O)[O-])cc1 the Potency was inconclusive: 5.62 µM [activator, partial curve]. With Cc1ccc(S(=O)(=O)NC(=NC(Cc2ccccc2)C(=O)O)c2ccccc2)cc1 (stereo not given) the “activity change, negative = inhibition” value was inactive: 13.6% [at 46.1 µM]. For COc1ccccc1CNC(=O)CCn1c(=O)c2ccccc2n(CC(=O)Nc2ccc(C)cc2C)c1=O, the “activity change, negative = inhibition” value was inactive: -10.5% [at 46.1 µM]. In the case of CCN1/C(=C/c2ccc3cccc(C)c3[n+]2CC)Sc2ccccc21, the Potency is reported as active: 2.59 µM. With NCCNC(=O)Cn1c(=O)c2c3c(sc2n(Cc2ccccc2)c1=O)CCCC3 the “activity change, negative = inhibition” value was inactive: -41.3%. For Fc1ccc(-c2nnc(NC3=NCCCCC3)o2)cc1, the Potency was inconclusive: 5.01 µM [inhibitor, full curve, poor fit]. For COc1ccc(CCN2CC(C(=O)N(C)CC(=O)Nc3ccc(F)c(F)c3F)CC2=O)cc1OC (stereo not given), the Potency was inconclusive: 0.891 µM [inhibitor, full curve, poor fit]. With C/C(CC(=O)Nc1ccccn1)=N\NC(=O)c1ccc(C)cc1 the Potency was inconclusive: 1.03 µM [activator, full curve, poor fit]. For S=C(NCCc1ccccc1)Nc1ccc(Br)cc1, the Potency was inconclusive: 17.8 µM [activator, single point]. With CCOc1cc(C=O)ccc1OCC(=O)NC(C)(C)C the “activity change, negative = inhibition” value was inactive: 9.18%. With COc1ccc(N(CC(=O)Nc2cccnc2)S(C)(=O)=O)cc1 the “activity change, negative = inhibition” value was inactive: -1.24% [at 46.1 µM]. In the case of S=c1nc(C2COc3ccccc3O2)[nH][nH]1 (stereo not given), the “activity change, negative = inhibition” value is reported as inactive: 1.88% [at 46.1 µM]. For O=C(CCCn1c(=S)[nH]c2cc3c(cc2c1=O)OCO3)N1CCN(c2ccc(Cl)cc2)CC1, the Potency was inconclusive: 11.6 µM [inhibitor, partial curve, poor fit]. For O=C(C1=NN[C@@H]2C(=O)N(c3cccc(F)c3)C(=O)[C@H]12)C(c1ccccc1)c1ccccc1, the Potency was inconclusive: 1.26 µM [inhibitor, single point]. For COc1cc2c(cc1NC(=O)Cc1ccc(C)cc1)oc1ccccc12, the Potency was inconclusive: 3.66 µM [activator, partial curve, poor fit]. For COc1ccc(-n2nc(C(=O)N3CCN(c4ccccc4OC)CC3)c3c4ccccc4n(C)c3c2=O)cc1, the “activity change, negative = inhibition” value was inactive: -2% [at 46.1 µM]. In the case of CC1CCCN(S(=O)(=O)c2ccccc2[N+](=O)[O-])C1 (stereo not given), the “activity change, negative = inhibition” value is reported as inactive: 0.789%. In the case of COc1cccc(CC(NC(C)=O)C(=O)NC2CCN(c3c(Cc4ccccc4)c(C)nc4ncnn34)CC2)c1 (stereo not given), the Potency is reported as “inactive and inconclusive: 92 nM [activator, full curve, poor fit]”. For COP(=O)(OC)C(NC(=O)/C=C/c1ccccc1)C(Cl)(Cl)Cl (stereo not given), the “activity change, negative = inhibition” value was inactive: 20% [at 46.1 µM]. For CCOc1ccccc1N1CCN(C(=O)NC2CCCCC2)CC1, the Potency was inconclusive: 2.82 µM [inhibitor, single point]. For COc1ccc(C(=O)COc2ccc(C(C)=O)cc2OC)cc1OC, the “activity change, negative = inhibition” value was inactive: -2.08%. With Cc1ccc(S(=O)(=O)NCCC(c2ccc(F)cc2)c2ccco2)cc1 (stereo not given) the Potency was inconclusive: 3.16 µM [inhibitor, single point]. In the case of Cc1cccc(S(=O)(=O)Nc2cc(Cl)ccc2N2CCOCC2)c1, the Potency is reported as inconclusive: 12.6 µM [inhibitor, partial curve, poor fit]. With CCCCN(Cc1ccccc1)C(=O)c1oc(=O)c2ccccc2c1-c1ccc(C)cc1 the Potency was inconclusive: 17.8 µM [inhibitor, single point]. In the case of COC(=O)/C(=C\Nc1ccc(Cl)cc1Cl)NC(=O)c1ccc(OC)cc1, the Potency is reported as inconclusive: 3.16 µM [inhibitor, full curve]. With CC1CCCN(S(=O)(=O)c2ccc(NC(=O)c3nc(SC(C)C)ncc3Cl)cc2)C1 (stereo not given) the Potency was inconclusive: 7.94 µM [inhibitor, partial curve, poor fit]. With Cc1c(NCc2cc(Cl)cc(Cl)c2O)c(=O)n(-c2ccccc2)n1C the Potency was inconclusive: 20.6 µM [inhibitor, partial curve, poor fit]. In the case of CC(Cc1ccccc1)N(C)C(=O)CN1C(=O)c2ccccc2C1=O (stereo not given), the “activity change, negative = inhibition” value is reported as inactive: 7.66%. In the case of CCSc1ncnc2c1sc1nc3c(cc12)COC(C)(C)C3, the Potency is reported as inconclusive: 6.31 µM [activator, single point]. With Cc1ccc(-n2c3nc(=O)n(C)c(=O)c-3cc3c(Cl)cccc32)c(C)c1 the Potency was inconclusive: 3.98 µM [inhibitor, single point]. In the case of O=c1c2ccccc2nc(/C=C/c2cccc([N+](=O)[O-])c2)n1CCO, the Potency is reported as inconclusive: 3.98 µM [inhibitor, full curve, poor fit]. In the case of Cc1nc(NCc2ccccn2)c2ccccc2n1, the Potency is reported as inconclusive: 3.26 µM [inhibitor, full curve]. For COC(=O)Cc1ccc(NC(=O)c2ccc3c(c2)C(=O)N(CC2CCCO2)C3=O)cc1 (stereo not given), the “activity change, negative = inhibition” value was inactive: 10.2%. With Cc1ccc(C(=O)Nc2cccnc2)cc1S(=O)(=O)N1CCCC1 the “activity change, negative = inhibition” value was inactive: 4.29%. In the case of Cc1nc2ccccc2n1CC(O)COc1ccc(C(=O)O)cc1 (stereo not given), the “activity change, negative = inhibition” value is reported as inactive: 13.8% [at 46.1 µM].
